Laboratory results: PubChem BioAssay AID1053208 (Peter MacCallum Cancer Centre, 2014)
Purpose: 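Genes whose silencing cuts survival of bone tumour cells only with doxorubicin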 (primary screen). Cell system: mouse osteosarcoma cells, early-passage culture from an engineered mouse model of fibroblastic bone tumour. Knock-down reagent: siRNA pool against mouse genes, 40 nM. Time to read-out: about 120 h (48 h before drug, then 72 h with drug). Treatment: doxorubicin 100 nM for 72 h, roughly 30-40% inhibitory dose. Measurement: 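Viability read as ATP luminescence after 72 h of 100 nM doxorubicin or none, duplicate wells averaged, scaled to non-targeting siRNA, then expressed as robust z-scores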. Scale: viability z-score with doxorubicin and doxorubicin viability vs non-targeting: higher = more viable cells under doxorubicin; viability z-score without drug: higher = more viable cells with knock-down alone; z-score of drug to no-drug ratio: higher = less drug sensitisation by knock-down. Active means: 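Called active if knock-down leaves viability unchanged without drug (z within -2 to 2) but lowers it with doxorubicin (z at or under -2)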.
This is a random part of about 17,000 reagents. Over the whole deposit, 788 (4.7%) were called active. 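Calls rest on z-score classes alone; an extra cut-off of viability at most 70% of control was not applied to them.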 Reagents against one gene are numbered here. Reagent sequences are not shown.

| gene | reagent no. | combined z-score class | viability z-score with doxorubicin | viability z-score without drug | z-score of drug to no-drug ratio | doxorubicin viability vs non-targeting | call |
| --- | --- | --- | --- | --- | --- | --- | --- |
| Tsx (testis specific X-linked gene) | 1 | no change with or without drug | -0.79 | -0.51 | -0.34 | 0.87 | inactive |
| 1700001F09Rik (RIKEN cDNA 1700001F09 gene) | 1 | no change with or without drug | -0.67 | 0.51 | -0.9 | 0.88 | inactive |
| Arhgap12 (Rho GTPase activating protein 12) | 1 | no change with or without drug | -0.11 | -0.84 | 0.56 | 0.93 | inactive |
| Zfp449 (zinc finger protein 449) | 1 | no change with or without drug | 1.8 | -0.17 | 2.14 | 1.1 | inactive |
| Timm50 (translocase of inner mitochondrial membrane 50) | 1 | no change with or without drug | 1.24 | 1.69 | 0.22 | 1.05 | inactive |
| Gpatch2 (G patch domain containing 2) | 1 | no change with or without drug | -0.45 | -0.17 | -0.22 | 0.9 | inactive |
| D630039A03Rik (RIKEN cDNA D630039A03 gene) | 1 | high cell count without drug only | 0.11 | 2.19 | -1.12 | 0.95 | inactive |
| Arl14ep (ADP-ribosylation factor-like 14 effector protein) | 1 | no change with or without drug | 0.34 | 1.18 | -0.34 | 0.97 | inactive |
| Podxl2 (podocalyxin-like 2) | 1 | no change with or without drug | 0.34 | 1.01 | -0.22 | 0.97 | inactive |
| Emcn (endomucin) | 1 | no change with or without drug | 1.35 | 0.17 | 1.35 | 1.06 | inactive |
| Prl8a2 (prolactin family 8, subfamily a, member 2) | 1 | no change with or without drug | -1.35 | -0.84 | -0.79 | 0.82 | inactive |
| Siva1 (SIVA1, apoptosis-inducing factor) | 1 | no change with or without drug | 0.45 | -0.17 | 0.67 | 0.98 | inactive |
| Eif3g (eukaryotic translation initiation factor 3, subunit G) | 1 | low cell count with and without drug | -4.05 | -3.54 | -2.25 | 0.58 | inactive |
| Il17a (interleukin 17A) | 1 | high cell count with and without drug | 3.04 | 2.19 | 1.57 | 1.21 | inactive |
| 4933427D14Rik (RIKEN cDNA 4933427D14 gene) | 1 | no change with or without drug | -1.35 | -0.17 | -1.24 | 0.82 | inactive |
| Slc1a6 | 1 | no change with or without drug | -1.35 | -1.18 | -0.56 | 0.82 | inactive |
| Tmem150cos (transmembrane protein 150C, opposite strand) | 1 | no change with or without drug | -0.22 | 1.18 | -0.9 | 0.92 | inactive |
| Atf7ip2 (activating transcription factor 7 interacting protein 2) | 1 | no change with or without drug | 0.67 | 0.67 | 0.34 | 1 | inactive |
| Atf7ip2 (activating transcription factor 7 interacting protein 2) | 2 | no change with or without drug | 0.34 | 1.52 | -0.56 | 0.97 | inactive |
| Agtpbp1 (ATP/GTP binding protein 1) | 1 | no change with or without drug | 0 | -0.34 | 0.34 | 0.94 | inactive |

Part of the list above, showing only “viability z-score without drug”:
Slc1a6 = -1.18
Tmem150cos (transmembrane protein 150C, opposite strand) = 1.18
Atf7ip2 (activating transcription factor 7 interacting protein 2) #1 = 0.67
